# Literature values, collected in US20220184081A1, “ANTIPRURITIC AGENT USING PAC1 RECEPTOR ANTAGONIST” (KAGOSHIMA UNIVERSITY, priority 2019, published 2022).
# At least one structure is not confirmed: it was looked up by name or label, or the drawing left a doubt.
# System: dialysis patients with renal failure or patients with liver failure
# Settings: cutaneous pruritus in dialysis patients with renal failure or patients with liver failure; cited from earlier work
smiles,measurement,value
CN(C(=O)/C=C/c1ccoc1)[C@@H]1CC[C@@]2(O)[C@H]3Cc4ccc(O)c5c4[C@@]2(CCN3CC2CC2)[C@H]1O5 [nalfurafine],response rate (share of patients for whom the drug is effective),70%
same,share of patients who could not obtain sufficient effects,approximately 30%
